Like-named read-outs stand apart in the source and are kept apart here.

The subject of assay [1] is interleukins. The following applies: cited from earlier work.
Assay [2] relates to Ts65Dn and 2N mice. The procedure: At the end of this period, all mice were anesthetized, perfused, and the brain was extracted. The right hemisphere from each brain was fixed in 4% paraformaldehyde followed by dehydration. The methodology for staining has been published before. […] The left hemisphere was flash frozen and used for gene expression studies.
Before all staining(s), to inhibit endogenous peroxidase, 70-μm-thick floating sections were pre-incubated in 0.5% H2O2 in 50% methanol for 30 minutes at RT. This was followed by pre-incubating the sections in 0.1% triton and 10% normal serums(s) (NS, Vector Labs) for 1 hour at RT. This was followed by incubation in primary antibodies overnight at RT. […] For DCX staining the sections were kept in pre-warmed (37° C.) for 30 minutes before staining. This was followed by incubation in secondary anti-bodies that were diluted in 0.1% triton and corresponding 1% NS. The sections were then incubated in ABC Lite (1:1000, Vector) for 1 hour. Staining was terminated by incubating in DAB (0.66 mg/ml in tris-HCl) for 5-10 minutes.

Assay [3] deals with Fgf2 mRNA. To be noted: DG micro-punches.
Assay [4] relates to Ts65Dn and 2N mice. The assay can be described thus: Open field activity. Format: in vivo, mouse. The following applies: P=0.011 central, P=0.017 peripheral. As to the method:
a) Open Field Activity. Prior to testing, the mice were handled for five days for habituation. […] Four hours later, the mice were tested for open field activity. The open field arena (450 mm×450 mm) had visual cues on the walls. […] The arena was cleaned after each session.

Consider `COc1ccc(CC(C)NCC(O)c2ccc(O)c(NC=O)c2)cc1` (centres unmarked) [formoterol], for which the “gene expression for IL-1β and IL-1 receptor-II” value in assay [1] (IP injections in rodents, cortical and hippocampal samples) was “significant increase”. Further, the “expression of interleukins particularly IL-10 in the hippocampus” value in assay [1] (intraperitoneal injections in rodents) is “significant increase”. Also, the “distance of GFAP-positive profiles from the DGC layer” value in assay [2] (2N mice) is “No significant effects”; in assay [2] (Ts65Dn mice), “significant increase”. For the same compound, the “density of GFAP-positive cell bodies or their processes” value in assay [2] (DG, 2N and Ts65Dn mice) is “no effects”. The “increase in Fgf2 gene expression” value is 80% in assay [3] (2N mice, P=0.044) and 20% in assay [3] (Ts65Dn mice, not significant). The “number of bouts (entries between central and peripheral area)” value in assay [4] is given as “significant reduction”.

Values taken from patent US9889087B2, “Intranasal delivery of β2-adrenergic receptor agonists for improving cognition in humans with down syndrome and compositions therefor” (priority 2014, dated 2018).
